Source: patent publication US20220257653A1
No constants are given. Whether binding was seen depends on the method and setting. Some entries that bind do so weakly or less than the wild type.

The chains behind the UniProt entries cited, without tags or fusion partners. Where a name states a change or a piece, a line headed by the entry shows the natural chain unless it says otherwise.
UniProt P01732: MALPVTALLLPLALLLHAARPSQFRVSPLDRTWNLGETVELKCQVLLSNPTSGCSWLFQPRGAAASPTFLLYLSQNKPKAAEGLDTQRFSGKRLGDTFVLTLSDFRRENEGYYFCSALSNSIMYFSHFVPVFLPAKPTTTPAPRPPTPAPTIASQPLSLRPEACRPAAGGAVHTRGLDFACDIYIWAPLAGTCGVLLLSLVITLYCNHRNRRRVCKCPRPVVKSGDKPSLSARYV

Target: T1, soluble, recombinant, human GPC2 (fluorescently labelled) (human) (UniProt Q8N158)
T1 sequence (fluorescently labelled, looked up): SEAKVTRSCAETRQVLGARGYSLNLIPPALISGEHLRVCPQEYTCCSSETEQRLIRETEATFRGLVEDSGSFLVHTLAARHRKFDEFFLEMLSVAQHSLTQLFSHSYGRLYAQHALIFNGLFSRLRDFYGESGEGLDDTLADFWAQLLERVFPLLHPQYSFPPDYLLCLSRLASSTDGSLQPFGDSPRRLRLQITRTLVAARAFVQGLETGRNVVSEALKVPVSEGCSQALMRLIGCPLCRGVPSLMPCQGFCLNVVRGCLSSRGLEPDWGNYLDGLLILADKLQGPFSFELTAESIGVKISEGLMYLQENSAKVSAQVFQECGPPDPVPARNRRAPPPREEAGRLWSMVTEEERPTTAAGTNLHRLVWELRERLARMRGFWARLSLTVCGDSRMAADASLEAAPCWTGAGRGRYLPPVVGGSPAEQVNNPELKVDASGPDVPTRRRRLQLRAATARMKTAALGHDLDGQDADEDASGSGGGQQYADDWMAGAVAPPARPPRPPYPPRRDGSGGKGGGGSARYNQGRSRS
Experiment: flow cytometry of CAR T-cells stained with fluorescently labelled soluble recombinant human GPC2

Substance | binding
GPC2 CAR construct with the GPC2.D3 scFv in variable heavy chain-linker-variable light chain orientation, CD8a hinge and transmembrane domain, 41BBz signaling domain (on primary human T-cells) (from UniProt P01732 138-206; Q07011 214-255; P20963 52-163) | binds
GPC2 CAR construct with the GPC2.D4 scFv in variable heavy chain-linker-variable light chain orientation, CD8a hinge and transmembrane domain, 41BBz signaling domain (on primary human T-cells) (from UniProt P01732 138-206; Q07011 214-255; P20963 52-163) | binds
